ChEMBL document CHEMBL5120864, “Targeting Enhancer of Zeste Homolog 2 for the Treatment of Hematological Malignancies and Solid Tumors: Candidate Structure-Activity Relationships Insights and Evolution Prospects” (J Med Chem, 2022)
In brackets after ≈: the same amount, converted by molar mass.

Assay: physchem
Settings: buffer

Work on `CCN(c1cc(-c2ccc(CN3CCOCC3)cc2)cc(C(=O)NCc2c(C)cc(C)[nH]c2=O)c1C)C1CCOCC1` [TAZEMETOSTAT] yielded a solubility of 3 µg/mL (≈ 5.24 µM).
